# The supplement of paper PMC8728848
# This is one part of the list.
# B1: Tim-4 (Mus musculus), Q6U7R4 (protein)
# chain: MSKGLLLLWLVTELWWLYLTPAASEDTIIGFLGQPVTLPCHYLSWSQSRNSMCWGKGSCPNSKCNAELLRTDGTRIISRKSTKYTLLGKVQFGEVSLTISNTNRGDSGVYCCRIEVPGWFNDVKKNVRLELRRATTTKKPTTTTRPTTTPYVTTTTPELLPTTVMTTSVLPTTTPPQTLATTAFSTAVTTCPSTTPGSFSQETTKGSAFTTESETLPASNHSQRSMMTISTDIAVLRPTGSNPGILPSTSQLTTQKTTLTTSESLQKTTKSHQINSRQTILIIACCVGFVLMVLLFLAFLLRGKVTGANCLQRHKRPDNTEDSDSVLNDMSHGRDDEDGIFTL
# Key:
# Experiment in all cases: glycan array binding signal (z-score within array); higher = stronger binding
# Details in all cases: glycan notation: IUPAC condensed, linker removed
# [1] = target: Fuc(a1-2)[GalNAc(a1-3)]Gal(b1-4)[Fuc(a1-3)]GlcNAc
# Outline: (§1)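 The binding signal is a Z-score computed within each array. Data were drawn from 3228 arrays in the Consortium for Functional Glycomics database, restricted to those with a known protein sequence. Scores were averaged over arrays of the same protein sequence at different concentrations or buffers, and over linkers, and negative values can be taken as non-binding.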
# [2] = target: Fuc(a1-2)[GalNAc(a1-4)]Gal(b1-4)GlcNAc
# Outline: as §1
# [3] = target: Fuc(a1-3)GlcNAc
# Outline: as §1
# [4] = target: Fuc(a1-3)[Gal(b1-4)]Glc6S
# Outline: as §1
# [5] = target: Fuc(a1-3)[Gal(b1-4)]GlcNAc
# Outline: as §1
# [6] = target: Fuc(a1-3)[Gal(b1-4)]GlcNAc(b1-3)Gal(b1-3)[Fuc(a1-4)]GlcNAc
# Outline: as §1
# [7] = target: Fuc(a1-3)[Gal(b1-4)]GlcNAc(b1-4)Gal(b1-4)[Fuc(a1-3)]GlcNAc
# Outline: as §1
# [8] = target: Fuc(a1-3)[Gal(b1-4)]GlcNAc(b1-4)Gal(b1-4)[Fuc(a1-3)]GlcNAc(b1-4)Gal(b1-4)[Fuc(a1-3)]GlcNAc
# Outline: as §1
# [9] = target: Fuc(a1-3)[Gal(b1-4)]GlcNAc6S
# Outline: as §1
# [10] = target: Fuc(a1-3)[Gal3S(b1-4)]Glc
# Outline: as §1
# [11] = target: Fuc(a1-3)[Gal3S(b1-4)]Glc6S
# Outline: as §1
# [12] = target: Fuc(a1-3)[Gal3S(b1-4)]GlcNAc
# Outline: as §1
# [13] = target: Fuc(a1-3)[Gal3S(b1-4)]GlcNAc6S
# Outline: as §1
# [14] = target: Fuc(a1-3)[GalNAc(b1-4)]Gal(b1-4)GlcNAc
# Outline: as §1
# [15] = target: Fuc(a1-4)GlcNAc
# Outline: as §1
# [16] = target: Fuc(b1-3)GlcNAc
# Outline: as §1
# [17] = target: Gal(a1-2)Gal
# Outline: as §1
# [18] = target: Gal(a1-3)Gal
# Outline: as §1
# [19] = target: Gal(a1-3)Gal(b1-3)Glc
# Outline: as §1
# [20] = target: Gal(a1-3)Gal(b1-3)GlcNAc
# Outline: as §1
# [21] = target: Gal(a1-3)Gal(b1-4)GlcNAc
# Outline: as §1
# [22] = target: Gal(a1-3)Gal(b1-4)[Fuc(a1-3)]GalNAc
# Outline: as §1
# [23] = target: Gal(a1-3)GlcNAc
# Outline: as §1
# [24] = target: Gal(a1-3)[Gal(a1-4)]Gal(b1-4)GlcNAc
# Outline: as §1
# [25] = target: Gal(a1-4)Gal(b1-4)Gal
# Outline: as §1
# [26] = target: Gal(a1-4)Gal(b1-4)GalNAc
# Outline: as §1
# [27] = target: Gal(a1-4)GlcNAc
# Outline: as §1
# [28] = target: Gal(a1-6)Glc
# Outline: as §1
# [29] = target: Gal(b1-2)Gal
# Outline: as §1
# [30] = target: Gal(b1-3)Gal
# Outline: as §1
# [31] = target: Gal(b1-3)GalNAc
# Outline: as §1
# [32] = target: Gal(b1-3)GalNAc(b1-3)Gal(a1-4)Gal(b1-4)Glc
# Outline: as §1
# [33] = target: Gal(b1-3)GalNAc(b1-3)Gal(b1-4)Glc
# Outline: as §1
# [34] = target: Gal(b1-3)GalNAc(b1-3)Gal(b1-4)GlcNAc
# Outline: as §1
# [35] = target: Gal(b1-3)GalNAc(b1-4)Gal(b1-4)Glc
# Outline: as §1
# [36] = target: Gal(b1-3)GalNAc(b1-4)[Neu5Ac(a2-3)]Gal(b1-4)Glc
# Outline: as §1
# [37] = target: Gal(b1-3)GlcNAc(b1-3)Gal(b1-3)GlcNAc
# Outline: as §1
# [38] = target: Gal(b1-3)[Fuc(a1-4)]GlcNAc
# Outline: as §1
# [39] = target: Gal(b1-3)[Fuc(a1-4)]GlcNAc(b1-3)Gal(b1-3)[Fuc(a1-4)]GlcNAc
# Outline: as §1
# [40] = target: Gal(b1-3)[Fuc(a1-4)]GlcNAc(b1-3)Gal(b1-4)GlcNAc
# Outline: as §1
# [41] = target: Gal(b1-3)[Fuc(a1-4)]GlcNAc(b1-3)Gal(b1-4)[Fuc(a1-3)]GlcNAc
# Outline: as §1
# [42] = target: Gal(b1-3)[GlcNAc(b1-6)]GalNAc
# Outline: as §1
# [43] = target: Gal(b1-3)[GlcNAc(b1-6)]GlcNAc
# Outline: as §1
# [44] = target: Gal(b1-3)[Neu5Ac(a2-6)]GalNAc
# Outline: as §1
# [45] = target: Gal(b1-3)[Neu5Ac(a2-6)]GlcNAc
# Outline: as §1
binder,measurement,setting,value
B1,glycan array binding signal (z-score),[1],0.089
same,glycan array binding signal (z-score),[2],-0.22
same,glycan array binding signal (z-score),[3],0
same,glycan array binding signal (z-score),[4],0.314
same,glycan array binding signal (z-score),[5],-0.399
same,glycan array binding signal (z-score),[6],0.006
same,glycan array binding signal (z-score),[7],-0.188
same,glycan array binding signal (z-score),[8],-0.717
same,glycan array binding signal (z-score),[9],0.089
same,glycan array binding signal (z-score),[10],-0.394
same,glycan array binding signal (z-score),[11],0.515
same,glycan array binding signal (z-score),[12],0.118
same,glycan array binding signal (z-score),[13],0.063
same,glycan array binding signal (z-score),[14],0.005
same,glycan array binding signal (z-score),[15],-0.355
same,glycan array binding signal (z-score),[16],-0.139
same,glycan array binding signal (z-score),[17],0.046
same,glycan array binding signal (z-score),[18],1.05
same,glycan array binding signal (z-score),[19],-0.271
same,glycan array binding signal (z-score),[20],-0.128
same,glycan array binding signal (z-score),[21],0.671
same,glycan array binding signal (z-score),[22],-0.299
same,glycan array binding signal (z-score),[23],0.503
same,glycan array binding signal (z-score),[24],-0.083
same,glycan array binding signal (z-score),[25],0.11
same,glycan array binding signal (z-score),[26],-0.122
same,glycan array binding signal (z-score),[27],0.103
same,glycan array binding signal (z-score),[28],0.878
same,glycan array binding signal (z-score),[29],0.166
same,glycan array binding signal (z-score),[30],0.453
same,glycan array binding signal (z-score),[31],-0.235
same,glycan array binding signal (z-score),[32],-0.394
same,glycan array binding signal (z-score),[33],-0.637
same,glycan array binding signal (z-score),[34],-0.297
same,glycan array binding signal (z-score),[35],0.014
same,glycan array binding signal (z-score),[36],-0.391
same,glycan array binding signal (z-score),[37],-0.425
same,glycan array binding signal (z-score),[38],-0.394
same,glycan array binding signal (z-score),[39],0.394
same,glycan array binding signal (z-score),[40],-0.187
same,glycan array binding signal (z-score),[41],-0.25
same,glycan array binding signal (z-score),[42],-0.192
same,glycan array binding signal (z-score),[43],-0.396
same,glycan array binding signal (z-score),[44],-0.479
same,glycan array binding signal (z-score),[45],-0.355

# Given with bars between the fields: entries from further up
binder | measurement | setting | value
B1 | glycan array binding signal (z-score) | [40] | -0.187
same | glycan array binding signal (z-score) | [43] | -0.396
